In paper PMC4894417, “Quantitative High-Throughput Profiling of Environmental Chemicals and Drugs that Modulate Farnesoid X Receptor” (Scientific Reports, 2014):

Tested on: FXR-UAS-bla HEK293T cells

COC(=O)C1=C(C)NC(C)=C(C(=O)OC)C1c1ccccc1[N+](=O)[O-] [Nifedipine]
Cytotoxicity IC50: Inactive
